No constants are given. Whether binding was seen depends on the method and setting. In cells and extracts the contact can be indirect. A yes stands for co-enrichment or nearness to the bait. Other partners may have been found.
B1: U6 snRNA-associated Sm-like protein LSM4 (protein, UniProt Q9Y4Z0 1-139)
chain: MLPLSLLKTAQNHPMLVELKNGETYNGHLVSCDNWMNINLREVICTSRDGDKFWRMPECYIRGSTIKYLRIPDEIIDMVKEEVVAKGRGRGGLQQQKQQKGRGMGGAGRGVFGGRGRGGIPGTGRGQPEKKPGRQAGKQ
B2: U4/U6 small nuclear ribonucleoprotein Prp4 (PRPF4) (protein, UniProt O43172 1-522)
chain: MASSRASSTQATKTKAPDDLVAPVVKKPHIYYGSLEEKERERLAKGESGILGKDGLKAGIEAGNINITSGEVFEIEEHISERQAEVLAEFERRKRARQINVSTDDSEVKACLRALGEPITLFGEGPAERRERLRNILSVVGTDALKKTKKDDEKSKKSKEEYQQTWYHEGPNSLKVARLWIANYSLPRAMKRLEEARLHKEIPETTRTSQMQELHKSLRSLNNFCSQIGDDRPISYCHFSPNSKMLATACWSGLCKLWSVPDCNLLHTLRGHNTNVGAIVFHPKSTVSLDPKDVNLASCAADGSVKLWSLDSDEPVADIEGHTVRVARVMWHPSGRFLGTTCYDRSWRLWDLEAQEEILHQEGHSMGVYDIAFHQDGSLAGTGGLDAFGRVWDLRTGRCIMFLEGHLKEIYGINFSPNGYHIATGSGDNTCKVWDLRQRRCVYTIPAHQNLVTGVKFEPIHGNFLLTGAYDNTAKIWTHPGWSPLKTLAGHEGKVMGLDISSDGQLIATCSYDRTFKLWMAE
B3: U4/U6 small nuclear ribonucleoprotein Prp3 (PRPF3) (protein, UniProt O43395 1-683)
chain: MALSKRELDELKPWIEKTVKRVLGFSEPTVVTAALNCVGKGMDKKKAADHLKPFLDDSTLRFVDKLFEAVEEGRSSRHSKSSSDRSRKRELKEVFGDDSEISKESSGVKKRRIPRFEEVEEEPEVIPGPPSESPGMLTKLQIKQMMEAATRQIEERKKQLSFISPPTPQPKTPSSSQPERLPIGNTIQPSQAATFMNDAIEKARKAAELQARIQAQLALKPGLIGNANMVGLANLHAMGIAPPKVELKDQTKPTPLILDEQGRTVDATGKEIELTHRMPTLKANIRAVKREQFKQQLKEKPSEDMESNTFFDPRVSIAPSQRQRRTFKFHDKGKFEKIAQRLRTKAQLEKLQAEISQAARKTGIHTSTRLALIAPKKELKEGDIPEIEWWDSYIIPNGFDLTEENPKREDYFGITNLVEHPAQLNPPVDNDTPVTLGVYLTKKEQKKLRRQTRREAQKELQEKVRLGLMPPPEPKVRISNLMRVLGTEAVQDPTKVEAHVRAQMAKRQKAHEEANAARKLTAEQRKVKKIKKLKEDISQGVHISVYRVRNLSNPAKKFKIEANAGQLYLTGVVVLHKDVNVVVVEGGPKAQKKFKRLMLHRIKWDEQTSNTKGDDDEESDEEAVKKTNKCVLVWEGTAKDRSFGEMKFKQCPTENMAREHFKKHGAEHYWDLALSESVLESTD
B4: U4/U6.U5 tri-snRNP-associated protein 1 (SNUT1) (protein, UniProt O43290 1-800)
chain: MGSSKKHRGEKEAAGTTAAAGTGGATEQPPRHREHKKHKHRSGGSGGSGGERRKRSRERGGERGSGRRGAEAEARSSTHGRERSQAEPSERRVKREKRDDGYEAAASSKTSSGDASSLSIEETNKLRAKLGLKPLEVNAIKKEAGTKEEPVTADVINPMALRQREELREKLAAAKEKRLLNQKLGKIKTLGEDDPWLDDTAAWIERSRQLQKEKDLAEKRAKLLEEMDQEFGVSTLVEEEFGQRRQDLYSARDLQGLTVEHAIDSFREGETMILTLKDKGVLQEEEDVLVNVNLVDKERAEKNVELRKKKPDYLPYAEDESVDDLAQQKPRSILSKYDEELEGERPHSFRLEQGGTADGLRERELEEIRAKLRLQAQSLSTVGPRLASEYLTPEEMVTFKKTKRRVKKIRKKEKEVVVRADDLLPLGDQTQDGDFGSRLRGRGRRRVSEVEEEKEPVPQPLPSDDTRVENMDISDEEEGGAPPPGSPQVLEEDEAELELQKQLEKGRRLRQLQQLQQLRDSGEKVVEIVKKLESRQRGWEEDEDPERKGAIVFNATSEFCRTLGEIPTYGLAGNREEQEELMDFERDEERSANGGSESDGEENIGWSTVNLDEEKQQQDFSASSTTILDEEPIVNRGLAAALLLCQNKGLLETTVQKVARVKAPNKSLPSAVYCIEDKMAIDDKYSRREEYRGFTQDFKEKDGYKPDVKIEYVDETGRKLTPKEAFRQLSHRFHGKGSGKMKTERRMKKLDEEALLKKMSSSDTPLGTVALLQEKQKAQKTPYIVLSGSGKSMNANTITK
B5: U4/U6.U5 tri-snRNP-associated protein 2 (SNUT2) (protein, UniProt Q53GS9 1-565)
chain: MSGRSKRESRGSTRGKRESESRGSSGRVKRERDREREPEAASSRGSPVRVKREFEPASAREAPASVVPFVRVKREREVDEDSEPEREVRAKNGRVDSEDRRSRHCPYLDTINRSVLDFDFEKLCSISLSHINAYACLVCGKYFQGRGLKSHAYIHSVQFSHHVFLNLHTLKFYCLPDNYEIIDSSLEDITYVLKPTFTKQQIANLDKQAKLSRAYDGTTYLPGIVGLNNIKANDYANAVLQALSNVPPLRNYFLEEDNYKNIKRPPGDIMFLLVQRFGELMRKLWNPRNFKAHVSPHEMLQAVVLCSKKTFQITKQGDGVDFLSWFLNALHSALGGTKKKKKTIVTDVFQGSMRIFTKKLPHPDLPAEEKEQLLHNDEYQETMVESTFMYLTLDLPTAPLYKDEKEQLIIPQVPLFNILAKFNGITEKEYKTYKENFLKRFQLTKLPPYLIFCIKRFTKNNFFVEKNPTIVNFPITNVDLREYLSEEVQAVHKNTTYDLIANIVHDGKPSEGSYRIHVLHHGTGKWYELQDLQVTDILPQMITLSEAYIQIWKRRDNDETNQQGA

The chains behind the UniProt entries cited, without tags or fusion partners.
UniProt A5YKK6: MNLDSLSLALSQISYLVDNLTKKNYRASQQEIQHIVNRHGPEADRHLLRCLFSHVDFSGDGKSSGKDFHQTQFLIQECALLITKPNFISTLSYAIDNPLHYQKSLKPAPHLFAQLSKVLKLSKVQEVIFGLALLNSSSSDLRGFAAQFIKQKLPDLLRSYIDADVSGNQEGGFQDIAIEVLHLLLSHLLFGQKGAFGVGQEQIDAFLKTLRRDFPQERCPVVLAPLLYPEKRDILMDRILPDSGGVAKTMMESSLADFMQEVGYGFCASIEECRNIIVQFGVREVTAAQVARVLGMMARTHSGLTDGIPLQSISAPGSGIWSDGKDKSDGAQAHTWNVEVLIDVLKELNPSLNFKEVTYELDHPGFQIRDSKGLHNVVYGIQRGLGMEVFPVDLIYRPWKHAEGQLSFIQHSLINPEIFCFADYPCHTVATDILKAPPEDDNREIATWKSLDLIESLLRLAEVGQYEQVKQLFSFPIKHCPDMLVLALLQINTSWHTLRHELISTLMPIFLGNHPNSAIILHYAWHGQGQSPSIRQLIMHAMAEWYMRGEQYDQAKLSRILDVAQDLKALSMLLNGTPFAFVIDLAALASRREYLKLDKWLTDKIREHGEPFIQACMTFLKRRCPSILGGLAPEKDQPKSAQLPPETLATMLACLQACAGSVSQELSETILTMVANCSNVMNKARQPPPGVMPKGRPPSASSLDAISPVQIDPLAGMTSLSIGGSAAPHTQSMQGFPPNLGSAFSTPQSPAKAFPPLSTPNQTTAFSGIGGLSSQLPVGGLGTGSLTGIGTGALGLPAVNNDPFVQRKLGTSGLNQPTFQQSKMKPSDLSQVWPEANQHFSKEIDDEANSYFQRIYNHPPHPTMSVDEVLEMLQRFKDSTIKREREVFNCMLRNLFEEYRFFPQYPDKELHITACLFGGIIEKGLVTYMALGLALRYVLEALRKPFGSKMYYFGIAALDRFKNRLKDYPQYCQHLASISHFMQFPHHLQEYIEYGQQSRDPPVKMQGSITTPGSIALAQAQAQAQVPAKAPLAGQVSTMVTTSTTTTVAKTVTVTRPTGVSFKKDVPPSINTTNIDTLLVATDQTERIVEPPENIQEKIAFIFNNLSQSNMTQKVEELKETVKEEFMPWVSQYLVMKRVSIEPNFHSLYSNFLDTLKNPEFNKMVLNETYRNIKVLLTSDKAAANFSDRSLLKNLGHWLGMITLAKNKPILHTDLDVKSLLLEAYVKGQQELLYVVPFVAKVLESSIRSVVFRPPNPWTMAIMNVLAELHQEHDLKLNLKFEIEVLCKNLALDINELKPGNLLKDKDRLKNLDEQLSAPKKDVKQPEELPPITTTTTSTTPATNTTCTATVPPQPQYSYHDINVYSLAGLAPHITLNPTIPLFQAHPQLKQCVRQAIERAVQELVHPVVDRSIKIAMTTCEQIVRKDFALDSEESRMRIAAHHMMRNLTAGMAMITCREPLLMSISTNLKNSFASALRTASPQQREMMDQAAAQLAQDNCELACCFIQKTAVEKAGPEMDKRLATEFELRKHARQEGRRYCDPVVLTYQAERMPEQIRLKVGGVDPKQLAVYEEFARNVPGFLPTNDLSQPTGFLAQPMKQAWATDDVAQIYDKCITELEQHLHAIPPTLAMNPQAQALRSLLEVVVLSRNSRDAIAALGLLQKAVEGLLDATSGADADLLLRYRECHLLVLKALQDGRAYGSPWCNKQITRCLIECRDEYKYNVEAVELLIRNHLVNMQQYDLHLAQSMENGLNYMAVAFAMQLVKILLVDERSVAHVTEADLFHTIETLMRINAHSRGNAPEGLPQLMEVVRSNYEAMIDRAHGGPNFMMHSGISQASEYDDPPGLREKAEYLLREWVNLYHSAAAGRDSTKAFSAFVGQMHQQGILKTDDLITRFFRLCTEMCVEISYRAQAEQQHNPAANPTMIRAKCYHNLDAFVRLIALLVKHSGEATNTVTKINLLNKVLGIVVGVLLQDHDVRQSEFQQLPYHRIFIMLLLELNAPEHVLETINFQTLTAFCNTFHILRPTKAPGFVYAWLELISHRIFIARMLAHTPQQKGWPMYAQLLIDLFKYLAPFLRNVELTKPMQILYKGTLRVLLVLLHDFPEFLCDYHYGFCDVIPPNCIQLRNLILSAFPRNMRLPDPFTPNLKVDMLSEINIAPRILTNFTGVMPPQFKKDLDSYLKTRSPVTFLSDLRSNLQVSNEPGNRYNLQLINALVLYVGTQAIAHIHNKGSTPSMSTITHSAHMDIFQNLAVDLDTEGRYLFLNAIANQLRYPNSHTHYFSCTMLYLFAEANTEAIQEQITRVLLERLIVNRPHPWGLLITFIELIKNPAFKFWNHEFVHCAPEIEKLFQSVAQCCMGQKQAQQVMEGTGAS

target: YTHDF2 (human (endogenous in HaCaT)) (UniProt Q9Y5A9); assay: affinity purification with mass spectrometry; YTHDF2 immunoprecipitates from HaCaT cells, 1 h post-sham or -UVB, against an IgG control; SDS-PAGE, in-gel trypsin digestion, nanoLC-MS/MS

| Molecule | binding |
| --- | --- |
| B1 | binds |
| B2 | binds |
| B3 | binds |
| B4 | binds |
| B5 | binds |

target: YTHDF2 (human (endogenous in HaCaT)) (UniProt Q9Y5A9); assay: as above; remark: another data set of the same source

| Molecule | binding |
| --- | --- |
| p62 (also known as SQSTM1) (from UniProt Q13501 1-440) | binds |
| CNOT1 (from UniProt A5YKK6 1-2376) | binds |

From paper PMC12612255
